For at least one compound, name, drawing or mass did not settle the structure.
System: guinea pig detrusor strips
Experiment: second in vitro test: guinea pig detrusor strips contracted with 80 mM KCl
Type: cell-based
Description: This second in vitro test is similar to the one described above with regard to tissue preparation and data acquisition. However, the following exceptions are noted. In this second test, the contraction of the detrusor strips during priming and after the equilibration period is achieved with 80 mM instead of 15 mM KCl (total concentration in the bath).
Typical calcium channel blockers like nifedipine, nimodipine, isradipine, and verapamil are able to relax and reduce the myogenic activity of guinea pig detrusor strips in both tests by virtue of their blocking action on calcium channels.

| SMILES | potency in the second test (80 mM KCl) compared with the first test (15 mM KCl) |
| --- | --- |
| COCCOC(=O)C1=C(C)NC(C)=C(C(=O)OC(C)C)C1c1cccc([N+](=O)[O-])c1 (centres unmarked) [nimodipine] | more potent in the second test |
| COC(=O)C1=C(C)NC(C)=C(C(=O)OC)C1c1ccccc1[N+](=O)[O-] [nifedipine] | more potent in the second test |

— EP0665834B1, “QUINOLONE AND ACRIDINONE DERIVATIVES FOR THE TREATMENT OF URINARY INCONTINENCE” (AstraZeneca AB, priority 1992, dated 1994)
